Experimental data published in the supplement of paper PMC10849652.
This is one part of the list.

Protein sequences, listed by entry. Tags and fused reporters are not part of them. Lines headed by an entry give the natural chain unless they say otherwise; changes in a name come on top.
UniProt P15529: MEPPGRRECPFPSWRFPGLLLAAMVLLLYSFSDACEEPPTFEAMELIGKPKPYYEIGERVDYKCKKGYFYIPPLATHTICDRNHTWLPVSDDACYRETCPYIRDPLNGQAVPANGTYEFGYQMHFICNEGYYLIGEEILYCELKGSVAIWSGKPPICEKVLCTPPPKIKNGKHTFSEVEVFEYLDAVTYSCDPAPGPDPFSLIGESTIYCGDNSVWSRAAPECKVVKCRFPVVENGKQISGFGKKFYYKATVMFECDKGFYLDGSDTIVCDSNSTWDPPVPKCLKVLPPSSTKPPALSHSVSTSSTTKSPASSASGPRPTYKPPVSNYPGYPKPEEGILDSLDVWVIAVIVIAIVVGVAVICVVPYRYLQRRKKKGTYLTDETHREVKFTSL
UniProt Q07108: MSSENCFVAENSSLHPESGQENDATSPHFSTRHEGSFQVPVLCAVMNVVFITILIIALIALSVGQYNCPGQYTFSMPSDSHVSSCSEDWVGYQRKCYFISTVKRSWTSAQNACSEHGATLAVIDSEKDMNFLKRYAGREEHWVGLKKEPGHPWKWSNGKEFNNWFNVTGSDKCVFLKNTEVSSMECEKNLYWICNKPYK
UniProt Q15834: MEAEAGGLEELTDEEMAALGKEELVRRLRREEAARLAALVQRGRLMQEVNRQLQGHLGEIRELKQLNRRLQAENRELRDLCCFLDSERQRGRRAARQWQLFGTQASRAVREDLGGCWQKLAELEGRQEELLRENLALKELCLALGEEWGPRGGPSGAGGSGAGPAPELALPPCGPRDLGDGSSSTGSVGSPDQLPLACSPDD
UniProt O43303: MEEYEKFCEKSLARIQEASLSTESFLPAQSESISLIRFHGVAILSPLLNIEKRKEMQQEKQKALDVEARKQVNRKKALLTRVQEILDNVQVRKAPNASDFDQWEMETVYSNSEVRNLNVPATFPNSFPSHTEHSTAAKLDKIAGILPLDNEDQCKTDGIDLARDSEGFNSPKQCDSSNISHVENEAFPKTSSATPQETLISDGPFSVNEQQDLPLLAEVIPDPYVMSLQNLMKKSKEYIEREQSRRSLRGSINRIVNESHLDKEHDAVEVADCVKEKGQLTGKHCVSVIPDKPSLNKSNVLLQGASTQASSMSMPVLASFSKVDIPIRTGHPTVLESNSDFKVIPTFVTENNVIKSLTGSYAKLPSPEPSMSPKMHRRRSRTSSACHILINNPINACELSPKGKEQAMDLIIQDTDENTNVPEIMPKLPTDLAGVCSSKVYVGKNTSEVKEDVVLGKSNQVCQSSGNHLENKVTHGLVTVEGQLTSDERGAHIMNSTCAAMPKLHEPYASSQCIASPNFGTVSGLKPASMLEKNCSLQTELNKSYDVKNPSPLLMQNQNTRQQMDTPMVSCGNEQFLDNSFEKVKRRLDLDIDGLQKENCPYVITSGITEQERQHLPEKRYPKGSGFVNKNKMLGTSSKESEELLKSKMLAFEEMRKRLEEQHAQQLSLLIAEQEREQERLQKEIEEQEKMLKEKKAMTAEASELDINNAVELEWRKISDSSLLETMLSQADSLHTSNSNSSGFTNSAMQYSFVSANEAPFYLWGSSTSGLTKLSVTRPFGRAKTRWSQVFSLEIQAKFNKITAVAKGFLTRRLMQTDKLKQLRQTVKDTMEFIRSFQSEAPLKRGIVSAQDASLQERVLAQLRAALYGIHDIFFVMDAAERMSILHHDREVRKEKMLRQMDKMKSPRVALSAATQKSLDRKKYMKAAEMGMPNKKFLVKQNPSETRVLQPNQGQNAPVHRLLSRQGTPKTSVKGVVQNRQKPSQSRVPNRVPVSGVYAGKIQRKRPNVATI
UniProt P24385, whole entry, looked up: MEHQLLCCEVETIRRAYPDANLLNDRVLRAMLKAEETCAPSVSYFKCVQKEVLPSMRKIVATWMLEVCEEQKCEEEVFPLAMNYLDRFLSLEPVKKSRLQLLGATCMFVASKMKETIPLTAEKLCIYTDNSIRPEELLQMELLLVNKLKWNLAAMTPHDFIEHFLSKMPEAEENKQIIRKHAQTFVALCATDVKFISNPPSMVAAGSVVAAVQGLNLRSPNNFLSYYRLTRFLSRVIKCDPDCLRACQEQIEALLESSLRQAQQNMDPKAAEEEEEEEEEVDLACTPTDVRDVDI
UniProt A2RUR9: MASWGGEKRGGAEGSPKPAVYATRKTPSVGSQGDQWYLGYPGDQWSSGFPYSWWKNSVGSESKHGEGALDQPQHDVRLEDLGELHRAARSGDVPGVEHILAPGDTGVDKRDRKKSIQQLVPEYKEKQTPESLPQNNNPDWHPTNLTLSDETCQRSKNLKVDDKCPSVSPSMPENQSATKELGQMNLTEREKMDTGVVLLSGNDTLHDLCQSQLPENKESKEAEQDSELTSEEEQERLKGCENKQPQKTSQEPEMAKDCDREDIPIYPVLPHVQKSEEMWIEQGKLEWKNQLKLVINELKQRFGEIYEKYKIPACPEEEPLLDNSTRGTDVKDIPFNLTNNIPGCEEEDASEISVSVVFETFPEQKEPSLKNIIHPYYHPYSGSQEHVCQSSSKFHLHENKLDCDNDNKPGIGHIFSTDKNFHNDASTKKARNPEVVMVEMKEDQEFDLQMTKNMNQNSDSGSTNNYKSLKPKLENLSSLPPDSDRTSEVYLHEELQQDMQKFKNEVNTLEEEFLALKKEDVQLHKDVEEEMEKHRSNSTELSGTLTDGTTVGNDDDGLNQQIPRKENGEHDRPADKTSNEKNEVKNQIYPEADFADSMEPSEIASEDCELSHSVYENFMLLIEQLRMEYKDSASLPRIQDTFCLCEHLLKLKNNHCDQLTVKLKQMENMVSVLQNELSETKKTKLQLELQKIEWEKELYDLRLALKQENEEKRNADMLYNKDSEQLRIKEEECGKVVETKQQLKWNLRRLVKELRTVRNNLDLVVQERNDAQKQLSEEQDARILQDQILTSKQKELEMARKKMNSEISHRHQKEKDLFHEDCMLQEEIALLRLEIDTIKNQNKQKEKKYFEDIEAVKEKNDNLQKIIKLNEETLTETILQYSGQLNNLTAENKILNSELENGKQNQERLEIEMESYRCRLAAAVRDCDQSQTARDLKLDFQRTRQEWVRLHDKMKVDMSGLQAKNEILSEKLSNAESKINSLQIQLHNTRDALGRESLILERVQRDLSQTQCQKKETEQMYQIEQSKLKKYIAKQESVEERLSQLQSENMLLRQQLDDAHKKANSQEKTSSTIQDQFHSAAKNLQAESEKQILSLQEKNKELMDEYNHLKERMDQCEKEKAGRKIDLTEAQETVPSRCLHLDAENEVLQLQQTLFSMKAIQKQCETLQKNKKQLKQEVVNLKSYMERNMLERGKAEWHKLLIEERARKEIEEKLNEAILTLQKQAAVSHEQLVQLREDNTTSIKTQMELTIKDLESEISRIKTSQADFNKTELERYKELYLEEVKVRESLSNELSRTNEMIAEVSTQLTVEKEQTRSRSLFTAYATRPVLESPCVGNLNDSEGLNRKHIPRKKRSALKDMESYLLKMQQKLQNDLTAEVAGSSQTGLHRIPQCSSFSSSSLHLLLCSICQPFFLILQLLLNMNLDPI
UniProt Q04900: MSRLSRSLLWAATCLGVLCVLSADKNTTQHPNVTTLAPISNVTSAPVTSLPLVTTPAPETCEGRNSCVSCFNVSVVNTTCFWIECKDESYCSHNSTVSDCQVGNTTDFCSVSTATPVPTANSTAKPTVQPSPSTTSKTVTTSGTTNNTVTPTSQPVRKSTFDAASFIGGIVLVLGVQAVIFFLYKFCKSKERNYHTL
UniProt Q5ZPR3: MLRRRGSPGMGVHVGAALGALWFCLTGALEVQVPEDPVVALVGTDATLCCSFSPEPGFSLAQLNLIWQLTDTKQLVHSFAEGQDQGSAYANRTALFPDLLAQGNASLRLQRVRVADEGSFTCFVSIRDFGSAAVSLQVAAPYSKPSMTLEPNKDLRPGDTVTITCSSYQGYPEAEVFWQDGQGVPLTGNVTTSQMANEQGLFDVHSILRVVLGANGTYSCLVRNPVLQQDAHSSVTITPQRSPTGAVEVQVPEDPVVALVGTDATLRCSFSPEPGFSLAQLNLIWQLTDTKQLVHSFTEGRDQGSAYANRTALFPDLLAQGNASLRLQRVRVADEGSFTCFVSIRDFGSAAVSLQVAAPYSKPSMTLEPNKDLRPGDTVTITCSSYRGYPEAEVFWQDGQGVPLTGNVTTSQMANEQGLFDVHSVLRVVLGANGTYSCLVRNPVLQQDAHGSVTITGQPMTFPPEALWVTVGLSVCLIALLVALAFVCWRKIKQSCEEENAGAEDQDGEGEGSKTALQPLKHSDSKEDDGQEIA
UniProt Q92526, whole entry, looked up: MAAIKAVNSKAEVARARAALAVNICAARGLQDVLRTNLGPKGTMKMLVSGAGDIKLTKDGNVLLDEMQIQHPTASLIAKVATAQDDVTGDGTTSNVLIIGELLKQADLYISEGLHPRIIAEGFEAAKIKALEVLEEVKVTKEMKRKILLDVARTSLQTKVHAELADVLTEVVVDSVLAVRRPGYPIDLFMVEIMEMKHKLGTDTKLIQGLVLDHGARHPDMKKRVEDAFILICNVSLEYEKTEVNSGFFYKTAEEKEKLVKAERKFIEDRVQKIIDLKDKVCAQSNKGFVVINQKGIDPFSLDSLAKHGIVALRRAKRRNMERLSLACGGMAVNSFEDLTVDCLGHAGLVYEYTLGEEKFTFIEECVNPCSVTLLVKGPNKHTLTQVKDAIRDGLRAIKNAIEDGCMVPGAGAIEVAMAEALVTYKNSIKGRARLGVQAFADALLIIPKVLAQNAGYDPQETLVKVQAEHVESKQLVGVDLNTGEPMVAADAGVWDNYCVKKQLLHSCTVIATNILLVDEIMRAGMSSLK
UniProt Q9HC52: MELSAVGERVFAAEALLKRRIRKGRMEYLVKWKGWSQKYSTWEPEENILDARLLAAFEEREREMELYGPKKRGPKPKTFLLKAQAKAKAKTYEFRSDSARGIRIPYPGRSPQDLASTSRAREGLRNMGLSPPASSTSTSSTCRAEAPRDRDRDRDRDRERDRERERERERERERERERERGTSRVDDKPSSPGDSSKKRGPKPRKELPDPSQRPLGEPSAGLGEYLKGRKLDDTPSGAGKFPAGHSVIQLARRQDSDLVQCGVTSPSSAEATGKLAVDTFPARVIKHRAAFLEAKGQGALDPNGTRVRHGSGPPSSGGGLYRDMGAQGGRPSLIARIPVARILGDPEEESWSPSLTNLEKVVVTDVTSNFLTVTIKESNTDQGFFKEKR
UniProt Q4G0S7: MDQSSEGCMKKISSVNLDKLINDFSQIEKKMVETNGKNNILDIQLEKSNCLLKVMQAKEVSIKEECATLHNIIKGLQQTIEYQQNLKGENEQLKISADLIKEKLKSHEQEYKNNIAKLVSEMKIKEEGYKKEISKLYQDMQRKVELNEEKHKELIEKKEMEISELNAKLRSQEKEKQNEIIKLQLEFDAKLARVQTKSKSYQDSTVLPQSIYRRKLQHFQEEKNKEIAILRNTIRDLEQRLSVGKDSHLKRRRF

Assays:
Experiment in all cases: log2 fold change, soluble protein after heating vs DMSO (PISA); higher = thermal stabilisation; K562 lysate, 10 uM; active = over 0.2 and 3.5 SD of the protein, either way, in both replicates (recomputed)
quisinostat = compound: Cn1cc(CNCC2CCN(c3ncc(C(=O)NO)cn3)CC2)c2ccccc21 [quisinostat]
Procedure, shortened: (§1)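 Following dounce homogenisation of K562 pellets in PBS pH 7.4 with 1 mM MgCl2, crude extract at 1 mg/mL protein was incubated for 30 min with 10 μM compound. Aliquots were then heated for 3 min over 48°C-58°C and pooled, NP-40 was added to 0.5% at 4°C, and soluble protein was recovered as the supernatant at 21,000xg for 90 min. Channel-sum-equalised TMTpro 16plex LC-MS/MS quantified this protein. Each value, from duplicates, is a log-two fold change in thermal stability relative to solvent controls.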

[1] = compound: NC(=O)Nc1cc(-c2cccc(F)c2)sc1C(=O)N[C@H]1CCCNC1
Procedure, shortened: as §1

[2] = compound: NC1(c2ccc(-c3nc4ccn5c(=O)[nH]nc5c4cc3-c3ccccc3)cc2)CCC1
Procedure, shortened: as §1

vorinostat = compound: O=C(CCCCCCC(=O)Nc1ccccc1)NO [vorinostat]
Procedure, shortened: as §1

silmitasertib = compound: O=C(O)c1ccc2c(c1)nc(Nc1cccc(Cl)c1)c1ccncc12 [silmitasertib]
Procedure, shortened: as §1

[3] = compound: O=C1NC(=O)C(c2cnc3ccccn23)=C1c1cn2c3c(cc(F)cc13)CN(C(=O)N1CCCCC1)CC2
Procedure, shortened: as §1

dasatinib = compound: Cc1nc(Nc2ncc(C(=O)Nc3c(C)cccc3Cl)s2)cc(N2CCN(CCO)CC2)n1 [dasatinib]
Procedure, shortened: as §1

[4] = compound: Cn1cc(-c2ccc3c(c2)CCN3C(=O)Cc2cccc(C(F)(F)F)c2)c2c(N)ncnc21
Procedure, shortened: as §1

[5] = compound: NC(=O)c1cnc(N[C@@H]2CCCC[C@@H]2N)nc1Nc1cccc(-n2nccn2)c1
Procedure, shortened: as §1

[6] = compound: NCC(=O)Nc1ccc(-n2nc(C(F)(F)F)cc2-c2ccc3c(ccc4ccccc43)c2)cc1
Procedure, shortened: as §1

entospletinib = compound: c1cn2cc(-c3ccc4cn[nH]c4c3)nc(Nc3ccc(N4CCOCC4)cc3)c2n1 [entospletinib]
Procedure, shortened: as §1

Measured: log2 fold change

CD46 (UniProt P15529)
inactive: quisinostat -0.021 | [1] 0.09 | [2] 0.011 | vorinostat 0.201 | silmitasertib 0.072 | [3] -0.161

CD69 (UniProt Q07108)
inactive: quisinostat -0.059 | [1] 0.073 | [3] -0.026

CCDC85B (UniProt Q15834)
inactive: dasatinib 0.066 | [4] -0.034 | quisinostat 0.086 | [1] 0.044 | [5] -0.225 | [2] 0.188 | [6] -0.039 | vorinostat 0.088 | silmitasertib 0.042 | [3] -0.077 | entospletinib -0.397

CCP110 (UniProt O43303)
inactive: dasatinib 0.063 | [4] -0.01 | quisinostat -0.062 | [1] 0.107 | [2] 0.055 | [6] -0.033 | vorinostat -0.102 | silmitasertib -0.131 | [3] -0.124 | entospletinib 0.045

CCND1 (UniProt P24385)
inactive: quisinostat -0.386 | [1] 0.126 | [3] 0.069

CCDC144A (UniProt A2RUR9)
inactive: dasatinib -0.152 | [4] 0.036 | quisinostat -0.064 | [1] 0.047 | [2] -0.166 | [6] 0.186 | vorinostat 0.041 | silmitasertib -0.081 | [3] 0.037 | entospletinib -0.039

2 successive records from above:
CCDC85B (UniProt Q15834)
inactive: dasatinib 0.066 | [4] -0.034 | quisinostat 0.086 | [1] 0.044 | [5] -0.225 | [2] 0.188 | [6] -0.039 | vorinostat 0.088 | silmitasertib 0.042 | [3] -0.077 | entospletinib -0.397

CCP110 (UniProt O43303)
inactive: dasatinib 0.063 | [4] -0.01 | quisinostat -0.062 | [1] 0.107 | [2] 0.055 | [6] -0.033 | vorinostat -0.102 | silmitasertib -0.131 | [3] -0.124 | entospletinib 0.045

(cont.)

CD164 (UniProt Q04900)
inactive: quisinostat -0.459 | [1] 0.085 | [2] 0.189 | vorinostat 0.117 | silmitasertib -0.195 | [3] -0.004

CD276 (UniProt Q5ZPR3)
inactive: [2] -0.109 | vorinostat 0.218 | silmitasertib -0.039

CCT6B (UniProt Q92526)
inactive: [5] -0.037

CBX8 (UniProt Q9HC52)
inactive: quisinostat 0.037 | [1] -0.066 | [6] -0.164 | [3] 0.059 | entospletinib -0.161

CCDC152 (UniProt Q4G0S7)
inactive: dasatinib -0.036 | [4] 0.066 | quisinostat -0.012 | [1] -0.052 | [2] 0.353 | [6] -0.015 | vorinostat -0.168 | silmitasertib 0.051 | [3] 0.131
